PMC6331469
These are yes or no findings as the source states them, for the method shown. In cells and extracts the contact can be indirect. Binding can be weak; no strength is given.

Sequences of proteins named here, by UniProt entry; tags and fusion partners are left off. A change or cut given only in a name is not applied to a line headed by its entry.
UniProt A6K863: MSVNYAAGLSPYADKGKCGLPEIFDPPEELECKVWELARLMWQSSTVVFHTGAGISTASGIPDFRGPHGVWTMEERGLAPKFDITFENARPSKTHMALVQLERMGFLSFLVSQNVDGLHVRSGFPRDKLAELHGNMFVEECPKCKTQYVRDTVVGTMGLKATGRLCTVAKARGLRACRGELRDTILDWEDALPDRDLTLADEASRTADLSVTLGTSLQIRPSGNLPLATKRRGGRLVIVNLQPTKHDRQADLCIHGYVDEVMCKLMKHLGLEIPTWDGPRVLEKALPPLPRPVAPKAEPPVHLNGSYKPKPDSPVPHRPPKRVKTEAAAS

Biological target: T1, nuclear factor of activated T cells c4 (rat (endogenous in NRCMs)) (UniProt D3Z9H7)
T1 sequence: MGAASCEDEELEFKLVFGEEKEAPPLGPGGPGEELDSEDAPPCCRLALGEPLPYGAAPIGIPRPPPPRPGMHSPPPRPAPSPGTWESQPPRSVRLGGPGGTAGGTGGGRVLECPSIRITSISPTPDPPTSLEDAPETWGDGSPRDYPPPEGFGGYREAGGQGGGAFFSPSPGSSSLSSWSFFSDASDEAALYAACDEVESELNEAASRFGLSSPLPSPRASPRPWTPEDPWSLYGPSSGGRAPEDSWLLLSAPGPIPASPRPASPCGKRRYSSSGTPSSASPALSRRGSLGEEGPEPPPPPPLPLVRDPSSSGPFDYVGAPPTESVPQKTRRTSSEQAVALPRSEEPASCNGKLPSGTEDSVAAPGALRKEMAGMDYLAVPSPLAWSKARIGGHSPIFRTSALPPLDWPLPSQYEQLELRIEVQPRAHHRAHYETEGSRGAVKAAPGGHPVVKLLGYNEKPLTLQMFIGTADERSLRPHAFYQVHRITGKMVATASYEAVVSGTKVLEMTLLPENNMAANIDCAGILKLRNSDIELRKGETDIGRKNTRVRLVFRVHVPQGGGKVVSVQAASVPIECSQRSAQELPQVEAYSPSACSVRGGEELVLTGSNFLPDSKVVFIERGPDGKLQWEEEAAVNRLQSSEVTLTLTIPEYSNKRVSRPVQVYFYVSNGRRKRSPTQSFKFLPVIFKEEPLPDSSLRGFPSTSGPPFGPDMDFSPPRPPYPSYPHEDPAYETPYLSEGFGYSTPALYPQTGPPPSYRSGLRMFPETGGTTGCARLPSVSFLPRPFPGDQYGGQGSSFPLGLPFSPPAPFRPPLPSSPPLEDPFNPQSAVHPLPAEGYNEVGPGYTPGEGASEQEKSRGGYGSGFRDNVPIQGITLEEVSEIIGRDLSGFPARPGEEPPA
Assay: co-IP; 200 ug total protein of NRCMs incubated with anti-NFATc4 antibody (1:200) or rat normal IgG overnight at 4°C, then protein G/A agarose beads for 4 h; washed with lysis buffer; Western blot; for p38 also after overexpression of SIRT6 or H133Y

binding: binds
Substance: Sirtuin 6 (from UniProt A6K863)
